Assay [1] concerns the target streptavidin (UniProt P22629). The assay can be described thus: phage ELISA.
Assay [2] deals with streptavidin (UniProt P22629). The assay can be described thus: phage ELISA, streptavidin coated on plate, anti-M13/HRP detection.

No constants are given. Whether binding was seen depends on the method and setting. Some binding calls cover weakened binding; strength is not graded here. Sequences can lack the tags named with a protein.

Take RECHPQNWTSCSNGSGGG (peptide, not shown: large carriers, disulfide bond constrained peptide) [PHPEP 97 peptide displayed on phage fused to pVII]: the binding entry with streptavidin [1] and with streptavidin [2] was “binds” each time.

These data come from patent publication US20120225807A1.
